Measured values: article PMC8910827
Results are given in words; binding and its absence hold for the method and conditions named. In cells and extracts the contact can be indirect. Some entries that bind do so weakly or less than the wild type.

Chains of the proteins cited; added tags and fusions are not shown.
UniProt P40337: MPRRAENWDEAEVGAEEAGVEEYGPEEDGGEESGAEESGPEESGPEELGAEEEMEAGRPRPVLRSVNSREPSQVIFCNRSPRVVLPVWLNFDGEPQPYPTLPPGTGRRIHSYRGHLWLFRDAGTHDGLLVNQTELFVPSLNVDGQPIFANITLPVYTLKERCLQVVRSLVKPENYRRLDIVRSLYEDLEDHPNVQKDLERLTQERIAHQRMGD
UniProt Q99497: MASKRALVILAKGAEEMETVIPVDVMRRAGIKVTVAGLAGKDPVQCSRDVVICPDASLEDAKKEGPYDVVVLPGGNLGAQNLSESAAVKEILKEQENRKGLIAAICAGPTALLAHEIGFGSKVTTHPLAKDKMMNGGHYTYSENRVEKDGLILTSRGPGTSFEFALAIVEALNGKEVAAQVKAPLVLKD

Molecular target: von Hippel–Lindau (VHL) protein (human (endogenous in placenta)) (UniProt P40337)
Experiment: co-IP; anti-VHL as pull-down antibody (4 µg) on placental lysates (400 mg total protein as printed) of SPT, IUGR and PE pregnancies (n = 3 each); immunoblot for HIF-1α, HIF-2α or DJ1

binding: binds
Substance: PARK7/DJ1 (from UniProt Q99497 1-189)
